Target: hERG K+ channels (Homo sapiens, UniProt Q12809)

The chains behind the UniProt entries cited, without tags or fusion partners. Where a name states a change or a piece, a line headed by the entry shows the natural chain unless it says otherwise.
UniProt Q12809: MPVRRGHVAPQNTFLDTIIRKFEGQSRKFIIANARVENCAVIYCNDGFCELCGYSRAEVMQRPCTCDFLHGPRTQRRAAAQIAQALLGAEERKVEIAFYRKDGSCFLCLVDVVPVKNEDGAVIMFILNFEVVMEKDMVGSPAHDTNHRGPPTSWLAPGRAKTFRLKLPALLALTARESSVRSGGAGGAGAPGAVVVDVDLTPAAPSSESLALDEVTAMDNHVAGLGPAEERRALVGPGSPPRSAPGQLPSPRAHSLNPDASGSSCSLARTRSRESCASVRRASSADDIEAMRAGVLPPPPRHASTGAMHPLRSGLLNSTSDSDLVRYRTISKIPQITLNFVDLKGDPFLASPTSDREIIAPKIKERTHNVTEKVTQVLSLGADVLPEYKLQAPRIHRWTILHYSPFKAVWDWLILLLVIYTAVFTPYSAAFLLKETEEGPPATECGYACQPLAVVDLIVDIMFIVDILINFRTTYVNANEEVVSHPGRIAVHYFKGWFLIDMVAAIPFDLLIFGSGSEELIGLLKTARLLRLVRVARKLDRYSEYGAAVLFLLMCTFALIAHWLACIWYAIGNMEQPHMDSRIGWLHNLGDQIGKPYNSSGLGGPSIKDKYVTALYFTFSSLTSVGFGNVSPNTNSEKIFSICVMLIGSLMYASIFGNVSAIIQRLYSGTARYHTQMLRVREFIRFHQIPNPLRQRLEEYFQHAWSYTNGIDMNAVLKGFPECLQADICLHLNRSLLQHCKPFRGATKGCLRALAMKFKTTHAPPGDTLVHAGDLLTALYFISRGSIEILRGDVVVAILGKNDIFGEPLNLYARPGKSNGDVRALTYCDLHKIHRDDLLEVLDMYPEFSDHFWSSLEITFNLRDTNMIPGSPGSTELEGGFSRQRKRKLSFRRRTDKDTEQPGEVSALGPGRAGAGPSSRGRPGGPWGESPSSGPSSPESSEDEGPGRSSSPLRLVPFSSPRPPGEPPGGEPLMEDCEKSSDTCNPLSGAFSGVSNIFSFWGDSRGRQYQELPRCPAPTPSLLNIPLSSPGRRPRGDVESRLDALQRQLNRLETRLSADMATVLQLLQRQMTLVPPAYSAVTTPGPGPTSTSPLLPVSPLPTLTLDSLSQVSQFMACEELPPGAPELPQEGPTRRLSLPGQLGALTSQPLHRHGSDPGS

Compound: CN1CCC[C@@H]1CCO[C@](C)(c1ccccc1)c1ccc(Cl)cc1 [Clemastine]
- effect on the hERG current (in words): IC50 values in the low and mid-nanomolar range

From publication PMC3266667 (Frontiers in Pharmacology, 2012)
